Measurements taken from patent US20090148510A1.
These are yes or no findings as the source states them, for the method shown. Some entries that bind do so weakly or less than the wild type.

Columns and labels:
[1] = biological target: N-terminally FLAG-tagged β2AR stably expressed in HEK-293 cells (UniProt P07550); assay: immunofluorescence on fixed HEK-293 cells expressing FLAG-tagged β2AR
[2] = biological target: N-terminally FLAG-tagged β2AR stably expressed in HEK-293 cells (UniProt P07550); assay: immunofluorescence on permeabilized HEK-293 cells expressing FLAG-tagged β2AR
[3] = biological target: N-terminally FLAG-tagged β2AR stably expressed in HEK-293 cells (UniProt P07550); assay: immunofluorescence on fixed, permeabilized HEK-293 cells expressing flag tagged β2AR
[4] = biological target: β2AR labeled at C265 with tetramethylrhodamine (UniProt P07550); assay: antibody dose-response on fluorescence of β2AR labeled at C265 with tetramethylrhodamine
[5] = biological target: N-terminally FLAG-tagged β2AR stably expressed in HEK-293 cells (UniProt P07550); assay: immunofluorescence on fixed or fixed and permeabilized HEK-293 cells expressing FLAG-tagged β2AR
β2AR24/365 = β2AR24/365 (UniProt P07550); assay: X-ray data from crystals of the complex
β2AR365 [6] = biological target: β2AR365 (UniProt P07550); assay: crystal structure of the β2AR-Fab complex
β2AR365 [7] = biological target: β2AR365 (UniProt P07550); assay: complex purified by size exclusion chromatography
β2AR365 [8] = biological target: β2AR365 (UniProt P07550); assay: X-ray crystal structure of the β2AR365-Fab5 complex
[9] = biological target: β2AR labeled at C265 with tetramethylrhodamine (UniProt P07550); assay: complex isolated by size exclusion chromatography and crystallized

Measured: binding

B1: antibody 5 (intact mouse monoclonal antibody) (antibody, V domains shown)
VH: EVQLQQSGAELARPGASVKLSCKASGYIFTDYYINWVRQRTGQGFEWIGEIYPGSGNIDYNERFKDKATLTADKSSSTAYMQLSSLTSEDSAVYFCVRGFGYWGQGTTLTVSS
VL: DIKMTQSPSSMYASLGERVTITCKASQDINSYLSWFQQKPGKSPKTLIYRANRLVDGVPSRFIGTGSGQDYSLTISSLDYEDMGIYYCLQYDEFPYTFGGGTKLEIKR
binds: [1] | [2] | [3] | [4] | [5]

B2: Fab 5 (Fab fragment of antibody 5) (Fab, V domains shown)
VH: B1 VH
VL: B1 VL
binds: β2AR24/365 | β2AR365 [6] | β2AR365 [7] | β2AR365 [8] | [9]
